# Measurements reported in PubChem BioAssay AID1671195 (Yale University, 2021)
# Screen: 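Genes whose knockdown alters LDL uptake in liver cancer cells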 (primary screen)
# Cell system: human Huh7 hepatoma cells
# Reagent: siRNA pool against human genes, 18 nM
# Time to read-out: about 2 to 2.5 days of knockdown, then 8 h LDL uptake
# Conditions: DiI-labelled LDL at 30 µg/ml for 8 h, in lipoprotein-deficient serum medium
# Measured: 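Fluorescent LDL signal imaged in cells, scaled to the plate median, robust z-score for each replicate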
# Reading the numbers: robust z-score: higher = more LDL uptake after knockdown
# Rule for the call: 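a gene counts as active if at least two replicate z-scores exceed ±2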
# Here is one part, drawn at random, of about 22,000 deposited reagents. Of all reagents, about 1,510 (6.9%) got an active call. 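Active includes knockdowns raising or lowering LDL uptake; positive z-scores mean more uptake, negative mean less.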 Entries without a mark were called inactive.
The first 4 records, ahead of the listing:
gene symbol,"robust z-score, replicate 1","robust z-score, replicate 2","robust z-score, replicate 3"
GP9 (glycoprotein IX platelet),0.0917,0.148,0.39
SMIM29 (small integral membrane protein 29),-0.697,-0.942,-0.857
ARSK (arylsulfatase family member K),-0.726,-0.748,-0.787
MBLAC1 (metallo-beta-lactamase domain containing 1),-1.09,-0.631,-1.23

Results, repeating the preview:
gene symbol,"robust z-score, replicate 1","robust z-score, replicate 2","robust z-score, replicate 3"
GP9 (glycoprotein IX platelet),0.0917,0.148,0.39
SMIM29 (small integral membrane protein 29),-0.697,-0.942,-0.857
ARSK (arylsulfatase family member K),-0.726,-0.748,-0.787
MBLAC1 (metallo-beta-lactamase domain containing 1),-1.09,-0.631,-1.23
LAMA4 (laminin subunit alpha 4),-0.112,0.0279,-0.26
WDR25 (WD repeat domain 25),0.565,-0.266,0.0858
C1orf56 (chromosome 1 open reading frame 56),-1.08,-0.11,-0.941
SACK1D (scaffolding CK1 anchoring protein D),0.484,0.0744,0.582
TNFSF8 (TNF superfamily member 8),2.63,0.31,1.95
SUB1P1 (SUB1 pseudogene 1),-0.366,-0.84,-0.609
MECR (mitochondrial trans-2-enoyl-CoA reductase),1.07,1.49,1.2
LZIC (leucine zipper and CTNNBIP1 domain containing),-0.48,-0.844,-1.1
LINC02656 (long independently transcribed non-coding RNA 2656),0.18,-0.343,-0.806
SHLD2 (shieldin complex subunit 2),-0.45,-1.28,-0.166
LINC01097 (long independently transcribed non-coding RNA 1097),-2.09 (active),-2.21,-2.32
SMPD2 (sphingomyelin phosphodiesterase 2),0.974,-0.473,-0.678
SCGB3A1 (secretoglobin family 3A member 1),1.2,-0.373,-0.0313
SGO1 (shugoshin 1),-0.501,0.328,1.2
VDAC1 (voltage dependent anion channel 1),-0.258,-0.156,-0.742
EIF2B2 (eukaryotic translation initiation factor 2B subunit beta),-1.13,-0.494,-0.678
EP300 (EP300 lysine acetyltransferase),2.54 (active),1.93,2.76
"TSFM (Ts translation elongation factor, mitochondrial)",-0.431,-1.55,-1.43
LYPD1 (LY6/PLAUR domain containing 1),0.0504,0.203,-0.137
CHD1 (chromodomain helicase DNA binding protein 1),1.32,-1.38,-0.132
CYP4F2 (cytochrome P450 family 4 subfamily F member 2),-0.378,0.262,0.112
VHL (von Hippel-Lindau tumor suppressor),-0.927,-1.94,-1.42
LOC345378 (retired record),-1.39,-1.79,-1.02
BTK (Bruton tyrosine kinase),-0.574,-1.49,-1.23
TDP1 (tyrosyl-DNA phosphodiesterase 1),-1.94,-1.36,-1.59
SEMA3A (semaphorin 3A),2.43,1.48,0.173
KNL1 (kinetochore scaffold 1),-0.816,-0.549,-0.117
LOC439911 (retired record),-0.602,-0.161,-0.505
SCRIB (scribble planar cell polarity protein),-0.353,-0.896,0.448
HCCAT5 (hepatocellular carcinoma associated transcript 5),-0.457,-0.446,-0.361
NF1P8 (neurofibromin 1 pseudogene 8),-0.00143,-0.636,-0.311
WNK4 (WNK lysine deficient protein kinase 4),-0.304,-0.352,-0.31
KRT83 (keratin 83),0.581,-0.734,0.0514
RANBP9 (RAN binding protein 9),0.616,-0.282,0.392
LOC392089 (retired record),-1.3,-1.32,-1.63
RPL18P9 (ribosomal protein L18 pseudogene 9),-0.411,-0.245,0.142
PRRX1 (paired related homeobox 1),-1,-1.26,-1.76
UBXN1 (UBX domain protein 1),-0.889,-1.07,-3.08
CDR2L (cerebellar degeneration related protein 2 like),1.12,1.56,0.0326
MYCBP (MYC binding protein),2.86 (active),2.04,1.9
TBX15 (T-box transcription factor 15),-0.535,-0.211,-0.363
KIR3DP1,-1.12,-1.29,-1.25
EPSTI1 (epithelial stromal interaction 1),-0.529,0.134,0.17
COX18 (cytochrome c oxidase assembly factor COX18),0.926,0.259,-0.408
"METTL2A (methyltransferase 2A, tRNA N3-cytidine)",-0.405,-0.664,-0.557
ARHGAP23 (Rho GTPase activating protein 23),-1.68 (active),-1.98,-2.29
"CNP (2',3'-cyclic nucleotide 3' phosphodiesterase)",1.33,-0.449,0.932
ZNF480 (zinc finger protein 480),0.651,0.931,1.17
SYNGR2 (synaptogyrin 2),0.172,0.695,0.607
LOC441831 (retired record),-0.778,-0.0863,-0.232
SYDE1 (synapse defective Rho GTPase activating protein 1),0.0158,-0.342,0.233
SHANK3 (SH3 and multiple ankyrin repeat domains 3),0.156,0.433,0.509
ARF6 (ARF GTPase 6),-0.105,1.99,1.26
CMKLR1 (chemerin chemokine-like receptor 1),-0.632,-1,-0.631
PRSS36 (serine protease 36),0.819,0.975,0.995
KRTAP10-4 (keratin associated protein 10-4),0.145,0.156,-0.359
MRPS22 (mitochondrial ribosomal protein S22),-0.0458,1.28,0.767
DDX11L2 (DEAD/H-box helicase 11 like 2 (pseudogene)),-0.349,-0.225,-0.245
FZD1 (frizzled class receptor 1),-2.04,4.26,1.57
NOTCH2 (notch receptor 2),-1.38,-0.887,-1.4
ALMS1 (ALMS1 centrosome and basal body associated protein),-0.263,0.791,0.621
BLM (BLM RecQ like helicase),-0.615,0.0954,0.0147
METAP2 (methionyl aminopeptidase 2),0.117,-0.129,-0.103
LOC388807 (retired record),-1.56,-1.72,-1.58
TRPA1,-0.837,-0.667,-0.451
TSHR (thyroid stimulating hormone receptor),-0.0538,0.42,-0.839
TIMM21 (translocase of inner mitochondrial membrane 21),-0.703,-2.14,-0.48
"LOC100505502 (POM121 transmembrane nucleoporin like, pseudogene)",-0.0611,0.264,0.0451
HCAR2 (hydroxycarboxylic acid receptor 2),0.581 (active),3.88,1.78
PCGF5 (polycomb group ring finger 5),-1.22,-1.19,-1.24
ABCA7 (ATP binding cassette subfamily A member 7),-0.397,-0.295,-0.138
"AGAP1 (ArfGAP with GTPase domain, ankyrin repeat and PH domain 1)",1.05,0.505,1.06
"FARP2 (FERM, ARH/RhoGEF and pleckstrin domain protein 2)",1.77,2.31,1.47
SOCS4 (suppressor of cytokine signaling 4),-0.361,-0.59,-0.712
LAMC1 (laminin subunit gamma 1),-0.259,-0.0422,0.192
XKR6 (XK related 6),2.71 (active),2.54,2.25
LOC440576 (retired record),1.64,0.93,1.16
OR13C4 (olfactory receptor family 13 subfamily C member 4),0.146,-0.558,-0.191
"NAA80 (N-alpha-acetyltransferase 80, NatH catalytic subunit)",0.101,0.0208,1.13
CLK3 (CDC like kinase 3),-0.269,0.315,0.405
LOC401215 (retired record),-0.11,-0.12,-0.395
SYT3 (synaptotagmin 3),-0.746,-1.01,-0.574
DCAF12 (DDB1 and CUL4 associated factor 12),0.264,0.0886,0.262
